# Data reported in publication PMC5399837.
# T1: Fimbrial protein; PilS cassette (Neisseria meningitidis (endogenous in strain MC58)) (UniProt P05431)
# T1 sequence: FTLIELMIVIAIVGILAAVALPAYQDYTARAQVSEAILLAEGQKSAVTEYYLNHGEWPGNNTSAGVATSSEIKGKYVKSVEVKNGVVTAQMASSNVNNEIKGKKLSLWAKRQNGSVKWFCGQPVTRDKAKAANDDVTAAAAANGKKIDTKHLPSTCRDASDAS
# Legend:
# [1] = biological target: DNA processing chain A (Neisseria meningitidis (endogenous in strain MC58)) (UniProt Q9K1K1); assay: affinity purification with mass spectrometry; Dynabeads coupled to rabbit polyclonal anti-DprA antibody, incubated with Nm MC58 wildtype lysate (100 mM NaCl, 2 mM MgCl, 1 mM DTT, 1% DDM) at 4 °C for 1.5 h; eluate digested in solution with trypsin, LC-MS/MS; ΔdprA lysate as control
# [2] = biological target: T1, Fimbrial protein; PilS cassette (Neisseria meningitidis (endogenous in strain MC58)); assay: affinity purification with mass spectrometry; Co-IP with rabbit polyclonal antibody raised against purified Tfp (PilE), Dynabeads Co-Immunoprecipitation Kit, Nm MC58 wildtype lysate; eluate digested in solution with trypsin, LC-MS/MS
Binder,binding [1],binding [2]
"Twitching motility protein PilT (protein, UniProt Q7DDU1 1-347) MQITDLLAFGAKNKASDLHLSSGISPMIRVHGDMRRINLPEMSAEEVGNMVTSVMNDHQRKIYQQNLEVDFSFELPNVARFRVNAFNIGRGPAAVFRTIPSTVLSLEELKAPSIFQKIAESPRGMVLVTGPTGSGKSTTLAAMINYINETQPAHILTIEDPIEFVHQSKKSLINQRELHQHTLSFANALRSALREDPDVILVGEMRDPETIGLALTAAETGHLVFGTLHTTGAAKTVDRIVDVFPAGEKEMVRSMLSESLTAVISQNLLKTHDGNGRVASHEILIANPAVRNLIRENKITQINSVLQTGQASGMQTMDQSLQSLVRQGLIAPEVARRRAQNSESMSF",no binding,binds
"DNA topoisomerase 1 (enzyme, UniProt Q9K1K0 1-768) MAKNLLIVESPSKAKTLKKYLGGDFEILASYGHVRDLVPKSGAVDPDNGFAMKYQLISRNGKHVDAIVAGAKEAENIYLATDPDREGEAISWHLLEILKSKRGLKNIKPQRVVFHEITKNAVLDAVAHPREIEMDLVDAQQARRALDYLVGFNLSPLLWKKIRRGLSAGRVQSPALRLICERENEIRAFEAQEYWTVHLDSHKGRSKFTAKLAQYNGAKLEQFDLPNEAAQADVLKELEGKEAVVTAIEKKKRSRNPAAPFTTSTMQQDAVRKLGFTTDRTMRTAQQLYEGIDVGQGAIGLITYMRTDSVNLADEALTEIRHYIENKIGKEYLPSAAKQYKTKSKNAQEAHEAIRPTSVYRTPESVKPFLSADQFKLYQMIWQRTVACQMTPAKFDQTTVDITVGKGVFRVTGQVQTFAGFLSVYEESSDDEEGEDSKKLPEMSEGDKLPVDKLYGEQHFTTPPPRYNEATLVKALEEYGIGRPSTYASIISTLKDREYVTLEQKRFMPTDTGDIVNKFLTEHFAQYVDYHFTAKLEDQLDEIADGKRQWIPLMDKFWKPFIKQVEEKEGIERAKFTTQELDETCPKCGEHKLQIKFGKMGRFVACAGYPECSYTRNVNETAEEAAERIAKAEAEQAELDGRECPKCGGRLVYKYSRTGSKFIGCVNYPKCKHVEPLEKPKDTGVQCPQCKKGNLVERKSRYGKLFYSCSTYPDCNYATWNPPVAEECLNCHWPVLTIKTTKRWGVEKVCPQKECGWKEQIEPPAPKE",binds,
"Pilus assembly protein PilG (protein, UniProt Q7DDR1 1-410) MAKNGGFSLFAKKEKRFIFEGRHSASDKLVNGEVSAFTEEEARKKLAKRGIRPLQITRVKTSSKRKITQEDITVFTRQLSTMIKAGLPLMQAFEIVARGHGNPSMTEMLMEIRGEVEQGSSLSRAFSNHPKYFDRFYCNLVAAGETGGVLESLLDKLAIYKEKTQAIRKKVKTALTYPVSVIAVAIGLVFVMMIFVLPAFKEVYANMGAELPALTQTVMDMSDFFVSYGWMVLIALGFAIYGFLKLKARSIKIQRRMDAILLRMPIFGDIVRKGTIARWGRTTATLIAAGVPLVDVLDSTAGAAGNLIYEEATREIRTRVIQGLSMTSGMRATELFPNMMLQMSSIGEESGSLDDMLNKAAEFYEDEVDNAVGRLSAMMEPIIIVILGLVIGTLLVAMYLPLFNLGNVVA",,binds
"Protein RecA (protein, UniProt P0DH59 1-348) MSDDKSKALAAALAQIEKSFGKGAIMKMDGSQQEENLEVISTGSLGLDLALGVGGLPRGRIVEIFGPESSGKTTLCLEAVAQCQKNGGVCAFVDAEHAFDPVYARKLGVKVEELYLSQPDTGEQALEICDTLVRSGGIDMVVVDSVAALVPKAEIEGDMGDSHVGLQARLMSQALRKLTGHIKKTNTLVVFINQIRMKIGVMFGSPETTTGGNALKFYSSVRLDIRRTGSIKKGEEVLGNETRVKVIKNKVAPPFRQAEFDILYGEGISWEGELIDIGVKNDIINKSGAWYSYNGAKIGQGKDNVRVWLKENPEVANEIDAKIRALNGVEMHITEGTQDETDGERPEE",no binding,

# Results are given in words; binding and its absence hold for the method and conditions named. Binding seen in cells or lysates may run through a third protein. A yes stands for co-enrichment or nearness to the bait. Other partners may have been found. For some assays here: A no says only that the protein was not detected with the bait.
